Data as given in the supplement of paper PMC10849652.
Some of the results follow.

Sequences of proteins named here, by UniProt entry; tags and fusion partners are left off. A change or cut given only in a name is not applied to a line headed by its entry.
UniProt Q14CS0: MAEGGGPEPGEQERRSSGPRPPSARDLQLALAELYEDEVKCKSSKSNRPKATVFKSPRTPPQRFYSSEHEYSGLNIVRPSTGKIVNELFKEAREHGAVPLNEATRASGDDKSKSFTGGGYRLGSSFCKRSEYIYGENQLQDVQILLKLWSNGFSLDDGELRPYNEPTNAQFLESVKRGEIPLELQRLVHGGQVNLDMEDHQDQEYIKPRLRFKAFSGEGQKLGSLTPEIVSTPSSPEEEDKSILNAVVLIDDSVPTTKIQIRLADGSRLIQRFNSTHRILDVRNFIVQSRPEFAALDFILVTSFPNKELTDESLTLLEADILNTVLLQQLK
UniProt O14530: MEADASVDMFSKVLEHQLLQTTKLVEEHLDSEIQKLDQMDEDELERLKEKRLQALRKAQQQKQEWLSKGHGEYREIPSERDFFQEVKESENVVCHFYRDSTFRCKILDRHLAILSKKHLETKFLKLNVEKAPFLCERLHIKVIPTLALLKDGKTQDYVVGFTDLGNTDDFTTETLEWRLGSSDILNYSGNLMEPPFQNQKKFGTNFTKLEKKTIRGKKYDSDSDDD
UniProt O75896: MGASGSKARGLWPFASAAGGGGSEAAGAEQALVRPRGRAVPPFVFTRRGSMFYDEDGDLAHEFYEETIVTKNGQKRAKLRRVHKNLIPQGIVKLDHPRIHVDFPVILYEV
UniProt P22314: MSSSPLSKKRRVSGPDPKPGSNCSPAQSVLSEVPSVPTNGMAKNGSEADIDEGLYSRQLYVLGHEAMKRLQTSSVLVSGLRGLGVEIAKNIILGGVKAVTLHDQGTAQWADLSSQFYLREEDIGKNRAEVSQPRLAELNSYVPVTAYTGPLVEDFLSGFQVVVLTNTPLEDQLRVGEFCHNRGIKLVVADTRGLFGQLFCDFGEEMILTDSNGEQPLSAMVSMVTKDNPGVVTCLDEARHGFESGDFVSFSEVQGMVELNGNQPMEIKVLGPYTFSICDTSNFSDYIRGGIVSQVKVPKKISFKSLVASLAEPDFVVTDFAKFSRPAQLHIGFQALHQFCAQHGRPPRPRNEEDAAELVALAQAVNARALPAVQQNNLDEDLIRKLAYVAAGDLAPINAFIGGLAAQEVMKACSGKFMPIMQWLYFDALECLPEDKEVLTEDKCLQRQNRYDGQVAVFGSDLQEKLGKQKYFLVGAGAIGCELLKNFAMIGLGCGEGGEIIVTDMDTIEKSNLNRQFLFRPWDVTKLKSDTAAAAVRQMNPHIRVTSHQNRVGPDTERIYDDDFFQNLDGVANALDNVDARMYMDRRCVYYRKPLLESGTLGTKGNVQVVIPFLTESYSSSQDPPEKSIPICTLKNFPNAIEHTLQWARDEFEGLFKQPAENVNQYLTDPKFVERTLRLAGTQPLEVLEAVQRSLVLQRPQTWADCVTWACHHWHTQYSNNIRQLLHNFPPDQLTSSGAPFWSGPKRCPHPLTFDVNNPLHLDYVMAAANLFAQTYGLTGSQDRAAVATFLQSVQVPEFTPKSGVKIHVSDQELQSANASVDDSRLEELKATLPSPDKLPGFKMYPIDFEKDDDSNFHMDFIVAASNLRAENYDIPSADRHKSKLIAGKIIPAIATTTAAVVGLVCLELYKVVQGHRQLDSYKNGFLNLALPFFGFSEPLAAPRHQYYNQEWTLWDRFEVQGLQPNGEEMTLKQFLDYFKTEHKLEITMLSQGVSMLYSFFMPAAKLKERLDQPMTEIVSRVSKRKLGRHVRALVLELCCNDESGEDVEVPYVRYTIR
UniProt Q6ZU65, whole entry, looked up: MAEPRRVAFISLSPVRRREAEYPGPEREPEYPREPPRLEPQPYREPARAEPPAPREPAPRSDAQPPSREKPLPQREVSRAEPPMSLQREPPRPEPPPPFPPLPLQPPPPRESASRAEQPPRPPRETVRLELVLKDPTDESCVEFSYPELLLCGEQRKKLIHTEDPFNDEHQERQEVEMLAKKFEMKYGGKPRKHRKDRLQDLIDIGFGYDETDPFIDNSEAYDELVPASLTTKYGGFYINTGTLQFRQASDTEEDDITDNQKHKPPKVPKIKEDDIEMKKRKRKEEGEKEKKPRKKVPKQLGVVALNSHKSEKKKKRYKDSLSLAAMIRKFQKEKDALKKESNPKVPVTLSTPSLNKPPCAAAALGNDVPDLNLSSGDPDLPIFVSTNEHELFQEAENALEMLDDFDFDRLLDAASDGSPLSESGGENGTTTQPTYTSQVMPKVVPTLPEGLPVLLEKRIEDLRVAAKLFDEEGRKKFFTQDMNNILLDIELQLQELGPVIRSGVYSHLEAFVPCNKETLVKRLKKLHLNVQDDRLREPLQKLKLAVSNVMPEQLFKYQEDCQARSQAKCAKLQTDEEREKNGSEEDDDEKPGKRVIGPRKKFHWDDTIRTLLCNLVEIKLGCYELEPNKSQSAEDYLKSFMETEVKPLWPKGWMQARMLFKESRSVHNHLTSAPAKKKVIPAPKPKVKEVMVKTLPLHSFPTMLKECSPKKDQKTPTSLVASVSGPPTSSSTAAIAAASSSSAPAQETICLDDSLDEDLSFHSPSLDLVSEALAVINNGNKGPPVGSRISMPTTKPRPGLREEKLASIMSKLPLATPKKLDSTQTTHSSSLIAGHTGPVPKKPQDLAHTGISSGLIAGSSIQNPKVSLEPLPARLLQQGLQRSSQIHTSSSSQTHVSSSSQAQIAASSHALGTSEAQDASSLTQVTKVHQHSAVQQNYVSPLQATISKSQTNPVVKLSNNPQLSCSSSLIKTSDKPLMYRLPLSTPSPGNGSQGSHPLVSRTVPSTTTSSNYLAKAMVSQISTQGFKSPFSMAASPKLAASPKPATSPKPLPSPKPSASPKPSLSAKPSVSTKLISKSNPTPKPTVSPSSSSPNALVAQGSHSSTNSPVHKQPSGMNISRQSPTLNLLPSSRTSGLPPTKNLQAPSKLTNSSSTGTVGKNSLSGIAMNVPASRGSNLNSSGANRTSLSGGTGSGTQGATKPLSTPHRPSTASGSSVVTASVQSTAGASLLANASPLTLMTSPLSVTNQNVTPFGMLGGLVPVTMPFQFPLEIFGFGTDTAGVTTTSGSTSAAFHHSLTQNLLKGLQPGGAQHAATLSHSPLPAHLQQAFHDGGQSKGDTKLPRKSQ
UniProt O75386: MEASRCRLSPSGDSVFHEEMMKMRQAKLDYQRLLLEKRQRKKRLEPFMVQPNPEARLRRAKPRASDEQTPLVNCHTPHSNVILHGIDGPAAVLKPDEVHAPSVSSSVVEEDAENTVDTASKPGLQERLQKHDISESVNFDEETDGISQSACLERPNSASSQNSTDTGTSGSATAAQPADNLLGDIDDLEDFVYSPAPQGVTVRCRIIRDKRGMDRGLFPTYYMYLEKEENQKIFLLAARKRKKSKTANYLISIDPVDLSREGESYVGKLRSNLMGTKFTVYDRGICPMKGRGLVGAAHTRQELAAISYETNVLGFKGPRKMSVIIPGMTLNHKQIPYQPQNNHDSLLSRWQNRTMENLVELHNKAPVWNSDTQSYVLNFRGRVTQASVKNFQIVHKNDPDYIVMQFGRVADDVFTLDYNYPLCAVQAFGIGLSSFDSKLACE
UniProt A6NHL2: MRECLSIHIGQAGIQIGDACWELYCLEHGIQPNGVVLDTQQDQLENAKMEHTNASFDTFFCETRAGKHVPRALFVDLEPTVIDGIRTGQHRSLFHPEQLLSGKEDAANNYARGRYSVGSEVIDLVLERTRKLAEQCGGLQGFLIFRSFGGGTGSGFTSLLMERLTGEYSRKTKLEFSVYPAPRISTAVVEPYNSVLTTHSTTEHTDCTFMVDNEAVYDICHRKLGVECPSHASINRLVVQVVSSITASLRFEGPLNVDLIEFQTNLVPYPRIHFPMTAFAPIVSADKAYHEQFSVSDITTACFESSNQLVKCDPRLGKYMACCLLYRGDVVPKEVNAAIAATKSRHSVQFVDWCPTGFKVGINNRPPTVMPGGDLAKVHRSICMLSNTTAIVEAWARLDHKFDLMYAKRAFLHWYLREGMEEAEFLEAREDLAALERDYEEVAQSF
UniProt O00124: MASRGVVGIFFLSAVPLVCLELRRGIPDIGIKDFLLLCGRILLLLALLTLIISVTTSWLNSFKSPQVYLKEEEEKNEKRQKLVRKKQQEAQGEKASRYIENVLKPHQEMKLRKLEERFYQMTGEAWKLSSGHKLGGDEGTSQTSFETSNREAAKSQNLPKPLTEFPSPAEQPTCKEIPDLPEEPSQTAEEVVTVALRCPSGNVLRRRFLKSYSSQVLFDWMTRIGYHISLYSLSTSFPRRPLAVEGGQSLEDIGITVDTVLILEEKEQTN
UniProt A6NNZ2, whole entry, looked up: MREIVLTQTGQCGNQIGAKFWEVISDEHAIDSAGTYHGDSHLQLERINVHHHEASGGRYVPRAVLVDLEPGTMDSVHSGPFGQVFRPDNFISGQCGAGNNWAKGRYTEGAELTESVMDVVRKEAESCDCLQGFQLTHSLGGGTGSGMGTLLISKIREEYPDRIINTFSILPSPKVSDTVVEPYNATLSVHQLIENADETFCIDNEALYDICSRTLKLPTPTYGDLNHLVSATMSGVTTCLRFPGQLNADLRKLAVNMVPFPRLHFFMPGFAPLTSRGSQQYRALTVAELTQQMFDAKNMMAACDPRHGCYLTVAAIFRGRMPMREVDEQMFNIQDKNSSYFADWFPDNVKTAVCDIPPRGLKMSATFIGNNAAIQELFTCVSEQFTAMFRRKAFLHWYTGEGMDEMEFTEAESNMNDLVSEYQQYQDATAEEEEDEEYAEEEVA
UniProt P07437, whole entry, looked up: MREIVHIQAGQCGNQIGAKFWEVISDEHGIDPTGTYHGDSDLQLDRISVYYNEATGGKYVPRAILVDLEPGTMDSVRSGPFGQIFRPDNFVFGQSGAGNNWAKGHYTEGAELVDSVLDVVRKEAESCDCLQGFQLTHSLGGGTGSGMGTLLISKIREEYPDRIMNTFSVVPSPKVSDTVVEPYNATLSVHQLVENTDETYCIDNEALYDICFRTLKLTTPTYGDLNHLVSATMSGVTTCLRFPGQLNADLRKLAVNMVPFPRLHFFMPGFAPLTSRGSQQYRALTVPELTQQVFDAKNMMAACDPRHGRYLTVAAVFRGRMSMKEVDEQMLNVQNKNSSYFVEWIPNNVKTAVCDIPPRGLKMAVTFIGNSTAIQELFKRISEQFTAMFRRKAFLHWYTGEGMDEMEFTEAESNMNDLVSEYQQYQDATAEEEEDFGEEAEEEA
UniProt P61077: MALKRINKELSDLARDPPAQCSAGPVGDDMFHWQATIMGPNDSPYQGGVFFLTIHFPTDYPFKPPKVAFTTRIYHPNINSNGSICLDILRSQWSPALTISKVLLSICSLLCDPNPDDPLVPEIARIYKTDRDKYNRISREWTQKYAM
UniProt Q9BZL1: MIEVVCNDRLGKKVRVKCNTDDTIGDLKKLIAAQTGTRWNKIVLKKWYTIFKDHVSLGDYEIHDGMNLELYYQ
UniProt Q8N2K1: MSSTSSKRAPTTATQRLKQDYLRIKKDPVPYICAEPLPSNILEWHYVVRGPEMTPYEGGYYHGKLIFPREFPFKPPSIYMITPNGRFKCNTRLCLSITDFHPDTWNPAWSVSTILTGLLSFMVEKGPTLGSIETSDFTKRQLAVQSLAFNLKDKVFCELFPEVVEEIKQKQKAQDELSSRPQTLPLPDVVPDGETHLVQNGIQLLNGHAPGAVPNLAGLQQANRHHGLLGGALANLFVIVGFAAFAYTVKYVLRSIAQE
UniProt Q969M7: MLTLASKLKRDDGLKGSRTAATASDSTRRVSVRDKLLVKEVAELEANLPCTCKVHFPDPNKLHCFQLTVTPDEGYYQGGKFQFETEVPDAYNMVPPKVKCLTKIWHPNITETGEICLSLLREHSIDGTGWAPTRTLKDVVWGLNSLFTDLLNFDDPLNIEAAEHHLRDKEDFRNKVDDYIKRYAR

Columns and labels:
Test in all cases: log2 fold change, soluble protein after heating vs DMSO (PISA); higher = thermal stabilisation; K562 lysate, 10 uM; active = over 0.2 and 3.5 SD of the protein, either way, in both replicates (recomputed)
[1] = compound: Cc1cn(-c2cc(NC(=O)c3ccc(C)c(Nc4nccc(-c5cccnc5)n4)c3)cc(C(F)(F)F)c2)cn1 [nilotinib]
Summary of the method: (§1)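 Log-two fold change in thermal stability relative to solvent controls is reported from duplicates. For each sample, crude K562 extract from dounce-homogenised pellets in PBS pH 7.4 with 1 mM MgCl2, at 1 mg/mL protein, was treated with 10 μM compound for 30 min. Aliquots heated for 3 min across 48°C-58°C were pooled, brought to 0.5% NP-40 at 4°C and cleared at 21,000xg for 90 min. The supernatant was quantified by TMTpro 16plex LC-MS/MS with channel sums equalised.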

[2] = compound: Cc1nc(Nc2n[nH]c3c2CN(C(=O)N[C@H](CN(C)C)c2ccccc2)C3(C)C)c2sccc2n1
Summary of the method: as §1

[3] = compound: Cc1nc(Nc2ncc(C(=O)Nc3c(C)cccc3Cl)s2)cc(N2CCN(CCO)CC2)n1 [dasatinib]
Summary of the method: as §1

[4] = compound: Cc1ncc(-c2ccnc(Nc3ccc(S(C)(=O)=O)cc3)n2)n1C(C)C
Summary of the method: as §1

[5] = compound: Cn1cc(-c2ccc3c(c2)CCN3C(=O)Cc2cccc(C(F)(F)F)c2)c2c(N)ncnc21
Summary of the method: as §1

[6] = compound: Cn1cncc1[C@@](N)(c1ccc(Cl)cc1)c1ccc2c(c1)c(-c1cccc(Cl)c1)cc(=O)n2C [tipifarnib]
Summary of the method: as §1

[7] = compound: NC(=O)c1cnc(N[C@@H]2CCCC[C@@H]2N)nc1Nc1cccc(-n2nccn2)c1
Summary of the method: as §1

[8] = compound: NC1(c2ccc(-c3nc4ccn5c(=O)[nH]nc5c4cc3-c3ccccc3)cc2)CCC1
Summary of the method: as §1

[9] = compound: Cn1cc(CNCC2CCN(c3ncc(C(=O)NO)cn3)CC2)c2ccccc21 [quisinostat]
Summary of the method: as §1

[10] = compound: NC(=O)Nc1cc(-c2cccc(F)c2)sc1C(=O)N[C@H]1CCCNC1
Summary of the method: as §1

Measured: log2 fold change

UBXN2B (UniProt Q14CS0)
inactive: [1] -0.04 | [2] -0.068 | [3] 0.08 | [4] -0.208 | [5] -0.099 | [6] 0.021 | [7] -0.024 | [8] -0.06

TXNDC9 (UniProt O14530)
inactive: [1] 0.002 | [2] 0.014 | [3] -0.002 | [4] 0.009 | [5] 0.037 | [9] 0.025 | [6] 0.008 | [10] -0.01 | [7] 0.006 | [8] -0.006

TUSC2 (UniProt O75896)
inactive: [1] -0.072 | [2] 0.05 | [3] 0.064 | [4] -0.099 | [5] 0.027 | [6] -0.125 | [7] -0.198 | [8] 0.191

2 records picked at random from the list so far:
TUSC2 (UniProt O75896)
inactive: [1] -0.072 | [2] 0.05 | [3] 0.064 | [4] -0.099 | [5] 0.027 | [6] -0.125 | [7] -0.198 | [8] 0.191

TXNDC9 (UniProt O14530)
inactive: [1] 0.002 | [2] 0.014 | [3] -0.002 | [4] 0.009 | [5] 0.037 | [9] 0.025 | [6] 0.008 | [10] -0.01 | [7] 0.006 | [8] -0.006

Following part.

UBA1 (UniProt P22314)
inactive: [1] -0.004 | [2] 0.014 | [3] -0.026 | [4] 0.002 | [5] 0.028 | [9] -0.019 | [6] -0.01 | [10] 0.019 | [7] 0.008 | [8] -0.011

UBN2 (UniProt Q6ZU65)
inactive: [1] 0.284 | [2] 0.121 | [3] -0.002 | [4] -0.052 | [5] -0.005 | [9] 0.071 | [6] 0.048 | [10] 0.025 | [8] 0.118

TULP3 isoform 2 (UniProt O75386)
inactive: [1] -0.194 | [2] 0.275 | [3] 0.004 | [4] 0.242 | [5] -0.016 | [6] 0.113 | [8] -0.21

UBA52 (UniProt P62987)
inactive: [1] 0.004 | [2] 0.111 | [4] 0.028 | [9] -0.015 | [6] -0.077 | [10] 0.029 | [7] 0.043 | [8] -0.02

TUBAL3 (UniProt A6NHL2)
inactive: [1] 0.068 | [2] -0.189 | [3] -0.074 | [4] 0.103 | [5] 0.082 | [6] 0.141 | [7] -0.025 | [8] -0.142

UBXN8 (UniProt O00124)
inactive: [1] -0.104 | [2] -0.031 | [3] 0.043 | [4] 0.098 | [5] -0.009 | [9] -0.388 | [6] 0.041 | [10] -0.025 | [8] -0.064

TUBB4A (UniProt M0QYM7)
inactive: [1] -0.029 | [2] -0.009 | [4] 0.039 | [9] -0.116 | [6] 0.013 | [10] 0.107 | [7] -0.048 | [8] 0.126

TTN isoform 12 (UniProt Q8WZ42)
inactive: [1] 0.032 | [2] -0.005 | [3] -0.081 | [4] 0.182 | [5] 0.229 | [9] -0.251 | [6] -0.02 | [10] 0 | [7] 0.044 | [8] -0.062

TUBB8B (UniProt A6NNZ2)
inactive: [1] -0.054 | [2] 0.04 | [3] -0.035 | [4] 0.02 | [5] -0.024 | [6] 0.097 | [7] 0.153

TUBB (UniProt P07437)
inactive: [1] 0.067 | [2] 0.016 | [3] -0.043 | [4] -0.001 | [5] -0.011 | [9] 0.004 | [6] 0.022 | [10] 0.048 | [7] -0.022 | [8] -0.003

UBE2D3 isoform 3 (UniProt P61077)
inactive: [1] 0.046 | [2] -0.071 | [3] 0.024 | [4] -0.012 | [5] -0.057 | [9] 0.011 | [6] 0.015 | [10] -0.001 | [7] -0.02 | [8] -0.015

UBL5 (UniProt Q9BZL1)
active: [9] 0.341
inactive: [1] 0.028 | [2] 0.154 | [3] 0.036 | [4] 0.018 | [5] 0.027 | [6] 0.031 | [10] -0.149 | [8] -0.013

UBE2J2 (UniProt Q8N2K1)
inactive: [1] 0.015 | [2] -0.029 | [3] -0.038 | [4] -0.045 | [5] 0.048 | [9] 0.031 | [6] -0.046 | [10] 0.127 | [8] -0.133

UBE2F isoform 2 (UniProt Q969M7)
inactive: [1] 0.067 | [2] -0.074 | [3] 0.184 | [4] -0.052 | [5] -0.038 | [9] 0.126 | [6] -0.013 | [10] -0.046 | [7] 0.013 | [8] -0.014
